In publication PMC3579733:

Key:
Assay in all cases: affinity purification with mass spectrometry; one-step and two-step bait fishing taken together (final data set; both methods applied to all baits); the place does not tell which of the two gave the result
[1] = target: T1, CheA (Halobacterium salinarum R1 (DSM 671)) (UniProt B0R4J9)
T1 sequence: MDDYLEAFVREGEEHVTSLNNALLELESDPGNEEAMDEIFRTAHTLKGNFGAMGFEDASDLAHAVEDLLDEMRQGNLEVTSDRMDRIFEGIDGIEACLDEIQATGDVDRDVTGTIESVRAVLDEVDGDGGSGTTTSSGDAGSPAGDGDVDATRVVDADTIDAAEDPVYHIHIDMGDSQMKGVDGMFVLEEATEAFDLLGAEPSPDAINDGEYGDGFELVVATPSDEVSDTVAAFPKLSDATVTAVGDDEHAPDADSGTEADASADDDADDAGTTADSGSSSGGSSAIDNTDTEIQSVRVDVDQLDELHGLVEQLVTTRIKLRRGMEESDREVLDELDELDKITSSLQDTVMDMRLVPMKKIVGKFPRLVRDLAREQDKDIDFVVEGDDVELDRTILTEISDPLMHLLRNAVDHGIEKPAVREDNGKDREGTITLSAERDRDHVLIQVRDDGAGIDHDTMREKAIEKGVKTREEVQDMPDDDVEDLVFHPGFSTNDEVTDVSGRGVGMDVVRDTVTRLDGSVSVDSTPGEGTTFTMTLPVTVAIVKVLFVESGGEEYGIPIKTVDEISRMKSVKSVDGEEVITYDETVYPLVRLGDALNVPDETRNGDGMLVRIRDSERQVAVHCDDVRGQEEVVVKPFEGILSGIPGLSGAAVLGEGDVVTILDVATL

[2] = target: T2, CheF2 (Halobacterium salinarum R1 (DSM 671)) (UniProt B0R4J4)
T2 sequence: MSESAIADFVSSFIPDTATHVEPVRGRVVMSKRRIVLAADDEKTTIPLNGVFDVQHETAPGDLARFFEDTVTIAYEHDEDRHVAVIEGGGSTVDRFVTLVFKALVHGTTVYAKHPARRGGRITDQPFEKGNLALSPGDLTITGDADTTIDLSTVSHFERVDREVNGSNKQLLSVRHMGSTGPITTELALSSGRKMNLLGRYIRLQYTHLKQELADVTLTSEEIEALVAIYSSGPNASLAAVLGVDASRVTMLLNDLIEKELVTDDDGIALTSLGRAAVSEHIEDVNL

[3] = target: OE4643R (Halobacterium salinarum R1 (DSM 671))

Measured: binding

B1: Htr7 (receptor, UniProt B0R6A6 1-545)
chain: MSGAAVFVDAVVAPLGDAVGAIGFGAAAALGYRNYRDTDAEAAFWMAFTFASLLGVTWTVSLMLEKAGVATQIFNLATGPLMATTVAVFAIGGTATLAIVEDMEALVEERAQRRQEAEEERAEAERAREKAEQKQAEAERQTAEAESAKQDARERSAEIEQLAADLESQATEVGATLEAASDGDLTARVDATTDNAEIAEVATVVNDMLTTMERTIDEIQGFSTNVTTASREATAGAKEIQDASQTVSESVQEIAAGTDDQREQLESVAEEMDSYSATVEEVAATAQSVADTAADTTDVATAGKQTAEDAIDAIDAVQETMQTTVANVDALEDLTTEIDDIAELISDIAEQTNMLALNANIEAARAGSGGGSNGDGFAVVADEVKELATESQRSAKDIAELIEEVQSQTATTVEEIRVAEQRVNDGAAAVEETVDAFGAVTENIQETTDGVQEISQAMDEQAQRSERVVSSVDDIATISQATADRAENVSAASEEQTASITEVTSSLQSLAAQADTLEDRLNEFRTEATGTAHGEATDAPAGQSD
no binding: all assays above

These are yes or no findings as the source states them, for the method shown. In cells and extracts the contact can be indirect. These calls come from enrichment with a bait or labelling near it, and not all partners need be listed. A no says only that the protein was not detected with the bait.
